# Measurements reported in PubChem BioAssay AID1159578 (Peter MacCallum Cancer Centre, 2015).
# Aim: 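Knock-downs that alter how fast lymphatic endothelial cells migrate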 (primary screen)
# Cells: human lymphatic endothelial cells
# Reagents: siRNA pool against human genes, 40 nM
# Duration: 48 h after transfection
# Measurement: 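Cells stained with dye and imaged after a scratch; covered wound area and nuclei counted, duplicates averaged, migration set against mock wells and turned into a robust z-score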
# Scale: migration robust z-score: higher = faster migration into the scratch; migration relative to mock: higher = more scratch area covered than mock; nuclei per well: higher = more cells in the well
# Hit rule: 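Pools averaging fewer than 3300 nuclei are never called; remaining pools count as changed when migration robust z lies outside -2 to 2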
# Calls: active = migration changed; inactive = no migration change, or too few cells
# In all, the deposit lists about 18,000 reagents; shown is a random part of them. About 1,030 of them (5.7%) were called active. 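Inactive calls also include pools with fewer than 3300 nuclei, whose migration was not assessed.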 The raw values are shown without normalisation. A number with no mark means an inactive call. The numbers tell different reagents against one gene apart. Reagent sequences are not shown.
gene knocked down,pool no.,migration robust z-score,migration class with cell-count check,migration relative to mock,"nuclei per well, duplicate mean"
CHMP1A,1,-0.11,migration z between -2 and 2; enough cells,0.78,4589
MRPL54,1,0.12,migration z between -2 and 2; enough cells,0.92,4495
ZNF490,1,-0.9,migration z between -2 and 2; enough cells,0.65,6621
CFAP46,1,-1.2,migration z between -2 and 2; enough cells,0.58,6122
CFAP46,2,-0.4,migration z between -2 and 2; enough cells,0.78,5832
GPATCH3,1,0.21,migration z between -2 and 2; enough cells,0.94,5800
TYR,1,0.28,migration z between -2 and 2; enough cells,0.86,5545
DCUN1D1,1,0.62,migration z between -2 and 2; enough cells,0.92,5270
TSPAN33,1,0.31,migration z between -2 and 2; enough cells,0.96,6336
MAF1,1,-0.81,migration z between -2 and 2; enough cells,0.68,4924
RIMS1,1,-0.48,migration z between -2 and 2; enough cells,0.76,4920
CEP15,1,-2.34 (active),migration z below -2; enough cells,0.29,3474
TMSB10,1,0.62,migration z between -2 and 2; enough cells,1.04,6454
HPGDS,1,1.38,migration z between -2 and 2; enough cells,1.07,6148
ATP11AUN,1,0.73,migration z between -2 and 2; enough cells,1.08,5642
ELAPOR2,1,1.14,migration z between -2 and 2; enough cells,1.18,7514
CHRM2,1,1.9,migration z between -2 and 2; enough cells,1.17,6240
STAM,1,-1.58,migration z between -2 and 2; enough cells,0.48,4391
SNCA,1,1.07,migration z between -2 and 2; enough cells,1.17,6472
PEAK1,1,-1.01,migration z between -2 and 2; enough cells,0.61,5555
DCK,1,0.02,migration z between -2 and 2; enough cells,0.81,5596

Ordered by “migration relative to mock” (low to high): 6 of the entries above
gene knocked down,pool no.,migration robust z-score,migration class with cell-count check,migration relative to mock,"nuclei per well, duplicate mean"
STAM,1,-1.58,migration z between -2 and 2; enough cells,0.48,4391
PEAK1,1,-1.01,migration z between -2 and 2; enough cells,0.61,5555
ATP11AUN,1,0.73,migration z between -2 and 2; enough cells,1.08,5642
CHRM2,1,1.9,migration z between -2 and 2; enough cells,1.17,6240
SNCA,1,1.07,migration z between -2 and 2; enough cells,1.17,6472
ELAPOR2,1,1.14,migration z between -2 and 2; enough cells,1.18,7514

The results go on.
gene knocked down,pool no.,migration robust z-score,migration class with cell-count check,migration relative to mock,"nuclei per well, duplicate mean"
RCOR1,1,1.33,migration z between -2 and 2; enough cells,1.23,6432
SFR1,1,-0.16,migration z between -2 and 2; enough cells,0.84,5536
SAR1B,1,1.72,migration z between -2 and 2; enough cells,1.35,6493
SLC2A3,1,-0.54,migration z between -2 and 2; enough cells,0.7,5541
TRPM2,1,-0.1,under 3300 nuclei; migration not judged,0.78,2856
MIA3,1,-1.86,migration z between -2 and 2; enough cells,0.4,6204
LYPD1,1,-0.02,migration z between -2 and 2; enough cells,0.88,5625
CHCHD1,1,1.18,migration z between -2 and 2; enough cells,1.19,5927
RIC8B,1,-0.39,migration z between -2 and 2; enough cells,0.78,5970
BLM,1,2.24 (active),migration z above 2; enough cells,1.23,5847
GCOM1,1,-0.43,migration z between -2 and 2; enough cells,0.77,4634
ORC4,1,0.26,migration z between -2 and 2; enough cells,0.95,7120
LLPH,1,0.42,migration z between -2 and 2; enough cells,1,5640
NDUFS2,1,-1.02,migration z between -2 and 2; enough cells,0.61,6912
NRG1,1,-0.57,migration z between -2 and 2; enough cells,0.7,3400
NFAM1,1,0.99,migration z between -2 and 2; enough cells,1.14,4354
NOB1,1,0.15,migration z between -2 and 2; enough cells,0.92,6258
PCDH1,1,1.77,migration z between -2 and 2; enough cells,1.34,7351
